Measured values from PubChem BioAssay AID1439 (NMMLSC, 2008).
Out of some 220,000 compounds screened, about 770 (0.35%) were called active. The inconclusive results got no clear call from the source; some entries with a clear call stand among them for comparison. Rule as the data show it: active = binding response below about 49% or above about 150%; inconclusive = no clear call, values can overlap the other calls; inactive = in between.

Sequences of proteins named here, by UniProt entry; tags and fusion partners are left off.
UniProt P09471, whole entry, looked up: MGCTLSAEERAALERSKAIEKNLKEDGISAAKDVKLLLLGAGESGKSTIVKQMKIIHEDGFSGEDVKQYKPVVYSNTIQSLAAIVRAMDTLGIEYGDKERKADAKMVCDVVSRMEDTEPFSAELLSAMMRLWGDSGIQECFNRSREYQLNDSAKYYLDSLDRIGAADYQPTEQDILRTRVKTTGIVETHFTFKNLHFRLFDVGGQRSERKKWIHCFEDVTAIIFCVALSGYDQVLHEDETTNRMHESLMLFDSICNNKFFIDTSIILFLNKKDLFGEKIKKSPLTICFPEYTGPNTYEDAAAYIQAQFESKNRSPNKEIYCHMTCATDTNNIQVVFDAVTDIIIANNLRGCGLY

What follows are molecules tested against Guanine nucleotide-binding protein G(o) subunit alpha (Homo sapiens) (UniProt P09471) (assay: RGS7-Galphao binding modulators, primary screen, biochemical, multiplexed bead flow cytometry (AID 1439;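 also: fluorescent Galphao held in activated GDP-AlF4 state binding bead-coupled RGS7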)). Settings: at 10 µM, actives lie on both sides.

Structure (SMILES)	binding response (% of control)
CCOC(=O)c1[nH]cnc1C(=O)Nc1cccc(Cl)c1	inconclusive: 115%
CSc1sc(C)cc1/C=N/O	inactive: 95.8%
O=c1[nH]c(=S)[nH]c2[nH]c(=S)[nH]c12	inconclusive: 83.7%
CC(C)C(=O)Nc1ccc(C(=O)NNC(=S)NC(=O)c2ccco2)cc1	inconclusive: 105%
CN(C)C(=O)c1cn(-c2ccccc2)c(=O)c2ccccc12	inactive: 104%
CC1=NOC(=O)/C1=C/c1ccc(N(C)C)cc1	inactive: 102%
COc1ccc(OCC(=O)N/N=C2/C=C(C)CC2)cc1	inconclusive: 103%
N#CC1=C(N)Oc2[nH]c(=S)[nH]c(=O)c2C12C(=O)Nc1ccccc12 (configuration not stated)	inconclusive: 93%
Cc1ccc(COc2ccccc2C(=S)N2CCCC2)cc1	inconclusive: 116%
Cc1nnc(SC(C)C(=O)Nc2c(C)n(C)n(-c3ccccc3)c2=O)n1N (configuration not stated)	inactive: 102%
CC(C)C(=O)OCC(=O)NCc1ccccc1Cl	inconclusive: 105%
CCC(=O)Nc1sc2c(c1C(N)=O)CCC2	active: 7.22%
Cc1ccccc1OCc1nnc(SCC(=O)O)n1Cc1ccccc1	inconclusive: 97.4%
O=C(CCl)Nc1ccccc1C(=O)Nc1ccc2c(c1)OCO2	inconclusive: 2.83%
O=S1(=O)[C@H]2C[C@@H]3CC[C@]2(CN1Cc1cccc(F)c1)O3	inconclusive: 100%
COCCOC(=O)c1c(NC(=O)CN2CCc3ccccc32)sc(C(N)=O)c1C	inconclusive: -141%
Cc1ccc(S(=O)(=O)Nc2cccc(Cl)c2)cc1NC(=O)c1cccnc1	inconclusive: 90%
O=C(N/N=C/c1cc2c(cc1[N+](=O)[O-])OCO2)c1cccnc1	inconclusive: 74.9%
O=C(O)CNS(=O)(=O)c1cccc(Cl)c1	inconclusive: 52%
Cc1cc(C(=O)Cn2nc(C(=O)O)c3ccccc3c2=O)c(C)n1CCc1ccc(Cl)cc1	inconclusive: 94.4%
O=C1COc2ccc(C(=O)COC(=O)Cc3ccsc3)cc2N1	inconclusive: 102%
O=C(Nc1nnc(CCS(=O)(=O)c2ccc3ccccc3c2)s1)c1ccc([N+](=O)[O-])cc1	inactive: 104%
COC(=O)CN(c1cc(Cl)ccc1OC)S(=O)(=O)c1ccc(C)cc1	inconclusive: 97.2%

Structure (SMILES)	binding response (% of control)
CN1/C(=C\C(=O)CSc2cccc[n+]2[O-])C(C)(C)c2ccccc21	inconclusive: 107%
O=C(NC(=S)Nc1ccccc1O)c1ccccc1Cl	inconclusive: 87.5%
COc1cc(NC(=O)c2cc(C)nc3ccccc23)cc(OC)c1OC	inconclusive: 100%
Cc1cc(C(=O)N/N=C/c2c(C)nn(-c3ccccc3)c2C)n[nH]1	inconclusive: -44.7%
CCOC(=O)C(CSCC(=O)c1ccc(Br)cc1)NC(=O)OC(C)(C)C (configuration not stated)	inactive: 104%
C/C(=N\NC(=O)Cn1nc(C)c([N+](=O)[O-])c1C)c1ccc(Cl)s1	inconclusive: 90.7%
COc1ccc(-c2cc(-c3nnc(COC(=O)c4ccncc4)o3)c3ccccc3n2)cc1OC	inactive: 103%
Cc1[nH]c2ccccc2c1/C=N/NC(=O)CNC(=O)c1ccccc1	inconclusive: 230%
Cc1cc(C(=O)NNc2ccc(C)c(C)c2)no1	inconclusive: 99.1%
CCC(=O)c1ccc(OCCn2cnc3ccccc32)cc1	inconclusive: 99.7%
CC(C)Oc1ccc(CCc2nnc(SCC(=O)O)n2-c2ccccc2)cc1	inconclusive: 75%
CCN(CC)C(=O)CSc1nnc2nnc3cc(OC)ccc3n12	inconclusive: 112%
C=CCN1C(=O)N(c2ccc(F)cc2)C(=O)C1CC(=O)Nc1ccc(Cl)cc1 (configuration not stated)	inconclusive: 85.5%
CC(NCc1ccccc1O)c1ccccc1 (configuration not stated)	inconclusive: 85%
O=C(Nc1ccccc1)[C@@H]1[C@@H]2C(=O)N(c3ccc(F)cc3)C(=O)[C@@H]2[C@H]2C=CC=NN21	inconclusive: 113%
Cc1ccc(CSc2nnc(-c3ccncc3)n2N)cc1	inconclusive: 76.7%
COc1ccc(CC(=O)NNC(=O)CSc2nc(C)c(C)c(=O)[nH]2)cc1	inactive: 101%
O=C(OC1CCCCC1=O)c1cc(Cl)ccc1[N+](=O)[O-] (configuration not stated)	inconclusive: 88.8%
Cc1ccccc1NC(=S)N(CCN1CCCCCC1)Cc1cccs1	inconclusive: 95.3%
CCCN(CCC)CC(O)Cn1cc(/C=C/C(=O)c2ccccc2)c2ccccc21 (configuration not stated)	inconclusive: 103%
NC(=S)COc1ccccc1	inconclusive: 55.6%
N#CC1CCCc2c1[nH]c1ccc([N+](=O)[O-])cc21 (configuration not stated)	inconclusive: -35.4%
Cn1c(Cc2ccccc2)nnc1SCC(=O)Nc1cccc(S(=O)(=O)NC2=NCCCCC2)c1	inconclusive: 108%

Structure (SMILES)	binding response (% of control)
CCOC(=O)C1CCN(c2nc3ccccc3n2CC(=O)c2ccccc2)CC1	inactive: 97.7%
O=C(Nc1ccc(F)cc1F)c1c(C(F)(F)F)ccnc1Oc1ccccc1	inconclusive: 124%
O=C(Cc1ccccc1)N/N=C/c1ccc2cccc(O)c2n1	inactive: 100%
O=C(O)c1cc(N/N=C/c2ccc(N3CCOCC3)cc2)ccc1Cl	inconclusive: 90.3%
CC1(C)C2CCC1(C)C(OC(=O)CNc1ccccc1)C2 (configuration not stated)	inconclusive: 59%
CC(C)(C)c1ccc(OCCCC(=O)Nc2ccc(S(N)(=O)=O)cc2)cc1	inactive: 102%
Cc1c(C)c2ccc(OS(C)(=O)=O)c(C)c2oc1=O	inactive: 98.8%
COC(=O)c1sc(-c2cccs2)cc1N	inconclusive: 545%
CC1CC(C)CN(c2cc(N(C)CCO)c([N+](=O)[O-])c3nonc23)C1 (configuration not stated)	inconclusive: 91.6%
Fc1cc(NC(=S)NCc2ccc(CNC(=S)Nc3ccc(Cl)c(F)c3)cc2)ccc1Cl	inconclusive: 102%
CCc1cccc(C)c1NC(=O)N(C)C1CCCCC1	inconclusive: 95.7%
COc1ccc(Oc2ccc(/C=N/NC(=O)c3cccnc3)cc2[N+](=O)[O-])cc1	inconclusive: 121%
O=C(NC1CCCCC1)C(c1ccco1)N(C(=O)c1csnn1)C1CCCC1 (configuration not stated)	active: 29.2%
Cc1ccc(NC(=O)C(=O)NCCOc2ccc(Cl)cc2)c(C)c1	inactive: 96.4%
CSc1nnc(-c2ccc(Br)s2)n1C	inconclusive: 132%
CCNC(=O)CN1C(=O)NC(Cc2ccccc2)(Cc2ccccc2)C1=O	inconclusive: 114%
CNC(=O)CNC(=O)Nc1ccc(C)cc1	inconclusive: 104%
N/C(=N\OC(=O)c1ccc(Cl)cc1[N+](=O)[O-])c1cccnc1	inconclusive: 81.6%
N#CCCN(Cc1ccccc1)C(=O)Nc1ccccc1	inconclusive: 79.2%
Cc1cc(C[n+]2ccsc2N)c2ncccc2c1	inconclusive: 138%
O=C(O)CC1(CC(=O)Nc2ccccc2N2CCOCC2)CCCC1	inconclusive: 107%
CC(=O)c1nnn(-c2ccccc2C#N)c1C	inconclusive: 112%
O=C(Cc1ccccc1Cl)NC1(O)C(=O)c2ccccc2C1=O	inconclusive: 146%

An excerpt from above in order of length of the SMILES, falling.
Structure (SMILES)	binding response (% of control)
Fc1cc(NC(=S)NCc2ccc(CNC(=S)Nc3ccc(Cl)c(F)c3)cc2)ccc1Cl	inconclusive: 102%
N/C(=N\OC(=O)c1ccc(Cl)cc1[N+](=O)[O-])c1cccnc1	inconclusive: 81.6%
N#CCCN(Cc1ccccc1)C(=O)Nc1ccccc1	inconclusive: 79.2%
COC(=O)c1sc(-c2cccs2)cc1N	inconclusive: 545%

Later entries:

Structure (SMILES)	binding response (% of control)
C=CCSc1nnc(NC(=O)c2cn(CC)c3nc(C)ccc3c2=O)s1	inconclusive: 97.1%
COc1ccc(/C=C/C(=O)O/N=C(\N)c2cccnc2)cc1OC	inconclusive: 85.1%
COc1ccccc1CNC(=O)/C=C/C(=O)O	inconclusive: 62.9%
COc1cccc(CN(C)CC(=O)Nc2c(C)cccc2C(C)C)c1	inactive: 103%
CC(=O)NC(=S)Nc1ccc(NC(=O)c2cccnc2Cl)cc1	inconclusive: 92.9%
CCCC1CC(C#N)N(N(C)C)C1=C(C#N)C#N (configuration not stated)	inconclusive: 14.2%
CCNC(=S)NNC(=O)c1ccncc1	inconclusive: 119%
C/C(=N\NC(=O)COc1ccc(C)cc1C(C)C)c1ccc(-n2ccnc2)cc1	inactive: 92.1%
CC(Sc1ccccc1)C(=O)NN=C1CCN(C)CC1 (configuration not stated)	inactive: 109%
COc1cccc(/C=N/NC(=O)c2[nH]nc3c2CCc2ccccc2-3)c1	inconclusive: 158%
COc1ccc(Br)cc1[C@H]1[C@H]2C=CC[C@@H](C)[C@@H]2C(=O)N1Cc1ccccc1	inconclusive: 102%
O=C(O)C1=C[C@H](c2coc3ccccc3c2=O)C[C@H](OCc2ccc(CO)cc2)O1	inactive: 97.2%
CCOc1ccc(NC(=O)COC(=O)CCS(=O)(=O)c2ccc(C)cc2)cc1	inactive: 100%
Cc1cc(C)cc(N(CC(=O)NC2CCC(C)CC2)S(=O)(=O)c2c(C)[nH]c(=O)[nH]c2=O)c1 (configuration not stated)	inconclusive: 128%
C/C=C\C=C/C(=O)Nc1cccc(C2=NOC3(C2)C[C@H](C(N)=O)N(C(=O)CC)C3)c1 (some centres not stated)	inconclusive: 107%
COc1ccc(C(=O)OCC(=O)NCC2CCCO2)cc1[N+](=O)[O-] (configuration not stated)	inconclusive: 109%
Cc1ccc(C)c(N(C)C(=O)c2cc3c(=O)[nH]c4ccc(C)cc4c3s2)c1	inconclusive: 129%
O=C(CN1CCCCC1)NCCNc1ccc(C(F)(F)F)cc1[N+](=O)[O-]	inactive: 101%
CCOC(=O)c1c(NC(=O)Cn2cnc([N+](=O)[O-])n2)sc2c1CCCC2	inactive: 103%
CC12CN(C(=O)c3ccccc3Br)CC(C)(CN(C(=O)c3ccccc3Br)C1)C2=O	inconclusive: -154%
O=C1CC(N2CCN(Cc3ccc(Cl)cc3)CC2)C(=O)N1CCc1ccccc1 (configuration not stated)	inconclusive: 102%
COc1cccc(Nc2nnc(SCC(=O)N3CC(=O)Nc4ccccc43)s2)c1	inconclusive: 98.8%
C/C(CC(=O)Nc1ccc(Cl)cc1C(F)(F)F)=N\NC(N)=S	inconclusive: 136%
